For 1 molecule, binding results are on record in US20200025759A1.

Holding throughout (assay): ELISA, virus solution immobilized on plate, anti-His-HRP detection
(ELISA stands for enzyme-linked immunosorbent assay.)

Experiment [1] addresses intranuclear protein derived from the type-B influenza virus (B/Hokkaido/M2/2014) (type-B influenza virus (B/Hokkaido/M2/2014)).
Experiment [2] addresses intranuclear protein derived from type-A influenza virus H1N1 (A/Hyogo/YS/2011 pdm) (type-A influenza virus H1N1 (A/Hyogo/YS/2011 pdm)).
Experiment [3] deals with intranuclear protein derived from type-A influenza virus H1N1 (A/Hokkaido/6-5/2014 pdm) (type-A influenza virus H1N1 (A/Hokkaido/6-5/2014 pdm)).

These are yes or no findings as the source states them, for the method shown. For part of these data: A result given as binding can be weak or reduced; the word gives no strength.

B1: VHH antibody consisting of the amino acid sequence represented by SEQ ID NO: 8 (VHH)
VHH: QVQLVESGGGLVQAGGSLRLSCIASGSIFSPNVMGWYRQAPGKPRELVAAITLGESTNYADSVKGRFTISRSNAENTVYLQMDSLKPEDTAVYYCNAGPILERVGPYWGQGTQVTVSS
For B1, the binding entry in experiment [1] was “no binding”; in experiment [2], “binds”; in experiment [3], “binds”.
